According to the supplement of paper PMC12823440, “Inhibitors supercharge kinase turnover through native proteolytic circuits” (Nature, 2025):
The list shows a part of the results. Hit calls seldom repeat between salt and free forms of one compound.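 Kinases, fused to nanoluciferase, were expressed in K562 cells; luminescence was measured every 4 h from 2 to 18 h as percent of control (DMSO = 100%, positive control = 0%). A time point is decreased if signal falls significantly (2 sigma). Hits were called by the authors by a rule that is not shown; the count of time points alone does not decide it.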

The chains behind the UniProt entries cited, without tags or fusion partners.
UniProt P29317, whole entry: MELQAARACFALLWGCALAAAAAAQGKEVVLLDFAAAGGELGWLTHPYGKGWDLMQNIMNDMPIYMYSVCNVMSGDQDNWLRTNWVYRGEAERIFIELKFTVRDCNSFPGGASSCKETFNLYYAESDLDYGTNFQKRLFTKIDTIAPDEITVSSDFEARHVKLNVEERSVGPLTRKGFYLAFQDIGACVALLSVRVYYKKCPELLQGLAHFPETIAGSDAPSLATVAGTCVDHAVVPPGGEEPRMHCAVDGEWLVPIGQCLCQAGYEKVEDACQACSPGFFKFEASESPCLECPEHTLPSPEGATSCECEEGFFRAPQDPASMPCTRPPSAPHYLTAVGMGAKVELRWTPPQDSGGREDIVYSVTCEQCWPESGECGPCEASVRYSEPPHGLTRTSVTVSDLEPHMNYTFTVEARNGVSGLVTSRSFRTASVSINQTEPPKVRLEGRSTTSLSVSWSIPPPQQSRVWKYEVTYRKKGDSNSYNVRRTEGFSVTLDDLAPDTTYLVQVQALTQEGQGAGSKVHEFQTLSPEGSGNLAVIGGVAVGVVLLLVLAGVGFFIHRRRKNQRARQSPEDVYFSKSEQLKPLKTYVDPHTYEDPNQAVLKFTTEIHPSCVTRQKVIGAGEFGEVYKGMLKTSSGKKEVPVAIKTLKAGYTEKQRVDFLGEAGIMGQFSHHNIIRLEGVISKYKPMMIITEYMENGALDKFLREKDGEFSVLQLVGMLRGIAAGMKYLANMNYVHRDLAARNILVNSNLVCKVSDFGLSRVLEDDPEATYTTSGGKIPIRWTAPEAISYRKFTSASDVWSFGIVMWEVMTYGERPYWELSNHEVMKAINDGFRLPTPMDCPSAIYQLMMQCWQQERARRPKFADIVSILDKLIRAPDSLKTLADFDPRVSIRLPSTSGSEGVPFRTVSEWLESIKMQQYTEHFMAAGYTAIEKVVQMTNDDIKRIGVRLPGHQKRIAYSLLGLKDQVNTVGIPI
UniProt P21860, whole entry: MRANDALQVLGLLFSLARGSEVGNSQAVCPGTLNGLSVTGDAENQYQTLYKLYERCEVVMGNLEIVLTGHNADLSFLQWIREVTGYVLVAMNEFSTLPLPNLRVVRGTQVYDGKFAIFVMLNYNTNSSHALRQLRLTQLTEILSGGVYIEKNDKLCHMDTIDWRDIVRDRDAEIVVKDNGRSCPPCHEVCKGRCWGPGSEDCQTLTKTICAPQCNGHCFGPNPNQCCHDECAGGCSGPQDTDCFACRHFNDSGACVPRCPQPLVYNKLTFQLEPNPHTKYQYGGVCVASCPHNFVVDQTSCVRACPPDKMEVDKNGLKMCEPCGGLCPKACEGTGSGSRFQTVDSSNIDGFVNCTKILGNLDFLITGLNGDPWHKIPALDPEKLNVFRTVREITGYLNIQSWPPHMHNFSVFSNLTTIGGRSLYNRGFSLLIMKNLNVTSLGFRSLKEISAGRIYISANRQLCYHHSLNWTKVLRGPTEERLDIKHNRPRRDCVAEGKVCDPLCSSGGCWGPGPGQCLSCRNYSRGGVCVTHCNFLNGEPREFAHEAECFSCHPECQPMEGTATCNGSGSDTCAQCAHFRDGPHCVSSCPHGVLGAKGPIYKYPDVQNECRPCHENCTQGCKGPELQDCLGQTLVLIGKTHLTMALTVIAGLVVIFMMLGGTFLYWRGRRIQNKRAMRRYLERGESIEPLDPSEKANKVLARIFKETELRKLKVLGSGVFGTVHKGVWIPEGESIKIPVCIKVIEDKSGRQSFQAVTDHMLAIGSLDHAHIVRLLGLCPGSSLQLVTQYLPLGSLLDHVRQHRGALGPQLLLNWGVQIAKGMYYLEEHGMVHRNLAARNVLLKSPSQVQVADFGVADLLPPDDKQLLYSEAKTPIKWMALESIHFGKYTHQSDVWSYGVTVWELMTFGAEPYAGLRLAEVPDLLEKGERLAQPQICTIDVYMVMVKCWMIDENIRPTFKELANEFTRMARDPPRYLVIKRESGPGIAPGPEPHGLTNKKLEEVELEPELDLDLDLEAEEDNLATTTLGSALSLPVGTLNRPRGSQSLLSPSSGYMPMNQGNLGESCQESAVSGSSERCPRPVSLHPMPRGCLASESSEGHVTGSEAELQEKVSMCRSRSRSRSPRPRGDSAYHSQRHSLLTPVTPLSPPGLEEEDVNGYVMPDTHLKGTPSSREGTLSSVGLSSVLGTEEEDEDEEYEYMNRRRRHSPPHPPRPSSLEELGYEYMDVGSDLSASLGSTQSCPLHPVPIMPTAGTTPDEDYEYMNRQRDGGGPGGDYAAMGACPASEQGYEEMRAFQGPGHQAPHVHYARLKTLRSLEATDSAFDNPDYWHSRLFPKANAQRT
UniProt Q15303, whole entry R711C: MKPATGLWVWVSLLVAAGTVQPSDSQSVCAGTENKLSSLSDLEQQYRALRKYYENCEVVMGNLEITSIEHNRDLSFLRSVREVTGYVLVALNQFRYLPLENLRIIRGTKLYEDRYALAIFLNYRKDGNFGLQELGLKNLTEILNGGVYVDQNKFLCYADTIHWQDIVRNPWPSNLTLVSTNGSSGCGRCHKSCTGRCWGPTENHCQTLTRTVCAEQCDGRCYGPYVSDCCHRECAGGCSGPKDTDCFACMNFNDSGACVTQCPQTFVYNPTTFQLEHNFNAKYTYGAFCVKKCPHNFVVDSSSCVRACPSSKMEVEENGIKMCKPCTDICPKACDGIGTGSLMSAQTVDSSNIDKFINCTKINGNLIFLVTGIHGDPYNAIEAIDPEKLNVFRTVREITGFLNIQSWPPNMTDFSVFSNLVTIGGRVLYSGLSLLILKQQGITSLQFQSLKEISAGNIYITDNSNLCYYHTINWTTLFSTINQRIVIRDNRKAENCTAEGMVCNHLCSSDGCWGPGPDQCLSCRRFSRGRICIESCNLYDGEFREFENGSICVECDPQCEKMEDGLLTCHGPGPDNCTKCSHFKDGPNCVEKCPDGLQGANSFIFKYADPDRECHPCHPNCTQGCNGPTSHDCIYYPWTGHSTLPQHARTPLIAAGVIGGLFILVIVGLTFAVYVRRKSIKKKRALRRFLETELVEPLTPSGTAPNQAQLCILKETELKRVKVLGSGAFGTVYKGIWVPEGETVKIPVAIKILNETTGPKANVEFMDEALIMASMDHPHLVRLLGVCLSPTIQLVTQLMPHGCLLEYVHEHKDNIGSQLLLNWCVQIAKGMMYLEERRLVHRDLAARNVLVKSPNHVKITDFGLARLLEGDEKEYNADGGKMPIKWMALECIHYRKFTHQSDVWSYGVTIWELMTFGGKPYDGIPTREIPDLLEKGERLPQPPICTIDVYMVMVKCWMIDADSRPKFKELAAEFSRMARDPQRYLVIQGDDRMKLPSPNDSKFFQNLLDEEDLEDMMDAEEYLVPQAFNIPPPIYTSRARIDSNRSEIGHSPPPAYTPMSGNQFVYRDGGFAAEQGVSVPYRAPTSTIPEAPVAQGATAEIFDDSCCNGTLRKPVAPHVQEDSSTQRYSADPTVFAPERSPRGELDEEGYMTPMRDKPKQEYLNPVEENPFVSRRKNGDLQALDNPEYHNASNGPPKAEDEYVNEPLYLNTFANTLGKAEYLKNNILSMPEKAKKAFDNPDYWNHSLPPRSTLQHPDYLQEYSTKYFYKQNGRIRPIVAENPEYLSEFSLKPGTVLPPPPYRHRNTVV

Tests used:
Assay in all cases: kinase-Nluc reporter destabilization hit call (1 = scored as downregulated) (binary); higher = compound decreases kinase abundance
Details in all cases: K562; 2-18 h
EGFR = EGFR (UniProt P00533)
EGFR_G719S = EGFR_G719S (UniProt P00533)
EGFR_G719S_T790M = EGFR_G719S_T790M (UniProt P00533)
EGFR_L718V = EGFR_L718V (UniProt P00533)
EGFR_L858R = EGFR_L858R (UniProt P00533)
EGFR_L861Q = EGFR_L861Q (UniProt P00533)
EGFR_T790M = EGFR_T790M (UniProt P00533)
EPHA2 = EPHA2 (UniProt P29317)
ERBB3 = ERBB3 (UniProt P21860)
[1] = target: ERBB4_R711C (clone: ERBB4_mut) (UniProt Q15303)

Measured: kinase-Nluc reporter destabilization hit call

C[C@H](CC[C@@H](O)C(C)(C)O)[C@H]1CC[C@@]2(C)[C@@H]3CC=C4[C@@H](CC[C@H](O)C4(C)C)[C@]3(C)[C@H](O)C[C@]12C [Mogrol] (10 µM)
inactive: EGFR 0 | EGFR_G719S 0 | EGFR_G719S_T790M 0 | EGFR_L718V 0 | EGFR_L858R 0 | EGFR_L861Q 0 | EGFR_T790M 0 | EPHA2 = 0 | ERBB3 = 0 | [1] 0

C1=N/C2=N/c3ccc(OCCN4CCCC4)c(c3)COC/C=C/COCc3cccc(c3)C(=C1)N2 [Pacritinib] (2.5 µM)
inactive: EGFR 0 | EGFR_G719S 0 | EGFR_G719S_T790M 0 | EGFR_L718V 0 | EGFR_L858R 0 | EGFR_L861Q 0 | EGFR_T790M 0 | EPHA2 = 0 | ERBB3 = 0 | [1] 0

CC[C@H](C)[C@@H]1NC(=O)[C@@H]2CCCN2C(=O)[C@@H]2CCCN2C(=O)[C@@H]2CCCN2C(=O)[C@H](CC(C)C)NC(=O)CNC(=O)CNC(=O)[C@H](Cc2ccccc2)NC1=O [Heterophyllin B] (10 µM)
inactive: EGFR 0 | EGFR_G719S 0 | EGFR_G719S_T790M 0 | EGFR_L718V 0 | EGFR_L858R 0 | EGFR_L861Q 0 | EGFR_T790M 0 | EPHA2 = 0 | ERBB3 = 0 | [1] 0

Some of these compounds in order of number of heavy atoms, low to high:
C[C@H](CC[C@@H](O)C(C)(C)O)[C@H]1CC[C@@]2(C)[C@@H]3CC=C4[C@@H](CC[C@H](O)C4(C)C)[C@]3(C)[C@H](O)C[C@]12C [Mogrol] (10 µM)
inactive: EGFR 0 | EGFR_G719S 0 | EGFR_G719S_T790M 0 | EGFR_L718V 0 | EGFR_L858R 0 | EGFR_L861Q 0 | EGFR_T790M 0 | EPHA2 = 0 | ERBB3 = 0 | [1] 0

C1=N/C2=N/c3ccc(OCCN4CCCC4)c(c3)COC/C=C/COCc3cccc(c3)C(=C1)N2 [Pacritinib] (2.5 µM)
inactive: EGFR 0 | EGFR_G719S 0 | EGFR_G719S_T790M 0 | EGFR_L718V 0 | EGFR_L858R 0 | EGFR_L861Q 0 | EGFR_T790M 0 | EPHA2 = 0 | ERBB3 = 0 | [1] 0

CC[C@H](C)[C@@H]1NC(=O)[C@@H]2CCCN2C(=O)[C@@H]2CCCN2C(=O)[C@@H]2CCCN2C(=O)[C@H](CC(C)C)NC(=O)CNC(=O)CNC(=O)[C@H](Cc2ccccc2)NC1=O [Heterophyllin B] (10 µM)
inactive: EGFR 0 | EGFR_G719S 0 | EGFR_G719S_T790M 0 | EGFR_L718V 0 | EGFR_L858R 0 | EGFR_L861Q 0 | EGFR_T790M 0 | EPHA2 = 0 | ERBB3 = 0 | [1] 0

Remaining list, next part

Cc1nc(Nc2ncc(C(=O)Nc3c(C)cccc3Cl)s2)cc(N2CCN(C(=O)CCCCCCC(=O)N[C@H](C(=O)N3C[C@H](O)C[C@H]3C(=O)NCc3ccc(-c4scnc4C)cc3)C(C)(C)C)CC2)n1 (2.5 µM)
inactive: EGFR 0 | EGFR_G719S 0 | EGFR_G719S_T790M 0 | EGFR_L718V 0 | EGFR_L858R 0 | EGFR_L861Q 0 | EGFR_T790M 0 | EPHA2 = 0 | ERBB3 = 0 | [1] 0

Cc1ncc(F)c(Nc2n[nH]c3c2CN(C(=O)N2C[C@@H](C)N(CC4CCOCC4)C[C@@H]2C)C3(C)C)n1 (10 µM)
inactive: EGFR 0 | EGFR_G719S 0 | EGFR_G719S_T790M 0 | EGFR_L718V 0 | EGFR_L858R 0 | EGFR_L861Q 0 | EGFR_T790M 0 | EPHA2 = 0 | ERBB3 = 0 | [1] 0

C=CC(=O)N1CCN(c2nc(OC[C@@H]3CCCN3C)nc3c2CCN(c2cccc4cccc(C)c24)C3)C[C@@H]1CC#N (2.5 µM)
inactive: EGFR 0 | EGFR_G719S 0 | EGFR_G719S_T790M 0 | EGFR_L718V 0 | EGFR_L858R 0 | EGFR_L861Q 0 | EGFR_T790M 0 | EPHA2 = 0 | ERBB3 = 0 | [1] 0

COC(=O)/C=C/c1ccc(O)c(OC)c1 [Ferulic acid methyl ester] (10 µM)
inactive: EGFR 0 | EGFR_G719S 0 | EGFR_G719S_T790M 0 | EGFR_L718V 0 | EGFR_L858R 0 | EGFR_L861Q 0 | EGFR_T790M 0 | EPHA2 = 0 | ERBB3 = 0 | [1] 0

C[C@H]1CNC(=O)c2cnn3ccc(nc23)N[C@H](C)c2cc(F)ccc2O1 [Repotrectinib] (2.5 µM)
inactive: EGFR 0 | EGFR_G719S 0 | EGFR_G719S_T790M 0 | EGFR_L718V 0 | EGFR_L858R 0 | EGFR_L861Q 0 | EGFR_T790M 0 | EPHA2 = 0 | ERBB3 = 0 | [1] 0

COc1ccc(C2CC(c3ccc(Cl)cc3)=NN2c2nc(-c3ccncc3)cs2)cc1 (stereo not given) [mTOR inhibitor-8] (10 µM)
inactive: EGFR 0 | EGFR_G719S 0 | EGFR_G719S_T790M 0 | EGFR_L718V 0 | EGFR_L858R 0 | EGFR_L861Q 0 | EGFR_T790M 0 | EPHA2 = 0 | ERBB3 = 0 | [1] 0

CC(C)(C)S(=O)(=O)c1ccc2nccc(Nc3n[nH]c4ccc(F)cc34)c2c1 (10 µM)
inactive: EGFR 0 | EGFR_G719S 0 | EGFR_G719S_T790M 0 | EGFR_L718V 0 | EGFR_L858R 0 | EGFR_L861Q 0 | EGFR_T790M 0 | EPHA2 = 0 | ERBB3 = 0 | [1] 0

COc1cc(-c2cnc(N)c(-c3ccc(NC(=O)c4cn(CC5CCOCC5)cc(-c5ccc(C)cn5)c4=O)cc3F)c2)ccc1OC[C@H]1COCCO1 [DS-1205b (free base)] (10 µM)
inactive: EGFR 0 | EGFR_G719S 0 | EGFR_G719S_T790M 0 | EGFR_L718V 0 | EGFR_L858R 0 | EGFR_L861Q 0 | EGFR_T790M 0 | EPHA2 = 0 | ERBB3 = 0 | [1] 0

COC(=O)[C@]1(C)CC[C@]2(C(=O)O[C@@H]3O[C@H](CO)[C@@H](O)[C@H](O)[C@H]3O)CC[C@]3(C)C(=CC[C@@H]4[C@@]5(C)C[C@H](O)[C@H](O[C@@H]6OC[C@@H](O[C@@H]7O[C@H](CO)[C@@H](O)[C@H](O)[C@H]7O)[C@H](O)[C@H]6O)[C@@](C)(CO)C5CC[C@]43C)[C@H]2C1 (stereo not given in full) [Esculentoside H] (10 µM)
inactive: EGFR 0 | EGFR_G719S 0 | EGFR_G719S_T790M 0 | EGFR_L718V 0 | EGFR_L858R 0 | EGFR_L861Q 0 | EGFR_T790M 0 | EPHA2 = 0 | ERBB3 = 0 | [1] 0

C[C@@H]1CN(Cc2cn[nH]c2-c2ccc(C#N)cc2)CCN1c1ccc(C(F)(F)F)cn1 (2.5 µM)
inactive: EGFR 0 | EGFR_G719S 0 | EGFR_G719S_T790M 0 | EGFR_L718V 0 | EGFR_L858R 0 | EGFR_L861Q 0 | EGFR_T790M 0 | EPHA2 = 0 | ERBB3 = 0 | [1] 0

CC[C@H](C)[C@H](NC(=O)[C@H](CCCCN)NC(=O)[C@H](CC(C)C)NC(=O)[C@@H]1CCCN1C(=O)[C@H](CCC(=O)O)NC(=O)[C@H](Cc1ccc(O)cc1)NC(=O)[C@@H](NC(=O)[C@H](CO)NC(=O)CNC(=O)[C@H](CO)NC(=O)[C@H](CCCN=C(N)N)NC(=O)[C@H](CCCCN)NC(=O)[C@@H](NC(=O)[C@@H](N)CCCN=C(N)N)[C@@H](C)O)C(C)C)C(=O)O [Malantide] (10 µM)
inactive: EGFR 0 | EGFR_G719S 0 | EGFR_G719S_T790M 0 | EGFR_L718V 0 | EGFR_L858R 0 | EGFR_L861Q 0 | EGFR_T790M 0 | EPHA2 = 0 | ERBB3 = 0 | [1] 0

OCCC#Cc1nc(-c2ccc(F)cc2)c(-c2ccncc2)n1CCCc1ccccc1 (2.5 µM)
inactive: EGFR 0 | EGFR_G719S 0 | EGFR_G719S_T790M 0 | EGFR_L718V 0 | EGFR_L858R 0 | EGFR_L861Q 0 | EGFR_T790M 0 | EPHA2 = 0 | ERBB3 = 0 | [1] 0

O=C(Nc1nc2cccc(-c3ccc(CN4CCS(=O)(=O)CC4)cc3)n2n1)C1CC1 [Filgotinib] (2.5 µM)
inactive: EGFR 0 | EGFR_G719S 0 | EGFR_G719S_T790M 0 | EGFR_L718V 0 | EGFR_L858R 0 | EGFR_L861Q 0 | EGFR_T790M 0 | EPHA2 = 0 | ERBB3 = 0 | [1] 0
